# Some of the results follow. Repeats are few or missing, and single values can be far off.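 Imaging used 1,536-well plates; nuclei positive for cleaved PARP by antibody were divided by total DNA-stained nuclei to yield the apoptosis fraction. Doses for screening kept most cells viable, and cell lines differ markedly in resting and induced cleaved-PARP levels.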
# Key:
# Test in all cases: cleaved PARP positive nuclei fraction relative to DMSO control; melanoma cells; higher = more apoptosis
# Conditions in all cases: library dose: low library concentration; 72 h
# MZ2-MEL = test system: MZ2-MEL
# MeWo = test system: MeWo
# RPMI7951 = test system: RPMI7951
# RVH-421 = test system: RVH-421
# SkMel28 = test system: SkMel28
# SkMel2 = test system: SkMel2
# SkMel30 = test system: SkMel30
# UACC62 = test system: UACC62
# WM115 = test system: WM115
# WM1716 = test system: WM1716
# WM1745 = test system: WM1745
# WM3526 = test system: WM3526
# WM3619 = test system: WM3619
# WM451Lu = test system: WM451Lu
SMILES,cleaved PARP positive nuclei fraction (MZ2-MEL) [%],cleaved PARP positive nuclei fraction (MeWo) [%],cleaved PARP positive nuclei fraction (RPMI7951) [%],cleaved PARP positive nuclei fraction (RVH-421) [%],cleaved PARP positive nuclei fraction (SkMel28) [%],cleaved PARP positive nuclei fraction (SkMel2) [%],cleaved PARP positive nuclei fraction (SkMel30) [%],cleaved PARP positive nuclei fraction (UACC62) [%],cleaved PARP positive nuclei fraction (WM115) [%],cleaved PARP positive nuclei fraction (WM1716) [%],cleaved PARP positive nuclei fraction (WM1745) [%],cleaved PARP positive nuclei fraction (WM3526) [%],cleaved PARP positive nuclei fraction (WM3619) [%],cleaved PARP positive nuclei fraction (WM451Lu) [%]
"O=C(Nc1cc(C(F)(F)F)cc(C(F)(F)F)c1)c1cc(Cl)ccc1O + CS(=O)(=O)CCNCc1ccc(-c2ccc3ncnc(Nc4ccc(OCc5cccc(F)c5)c(Cl)c4)c3c2)o1 [lapatinib] (first compound 0.016 µM, partner dose 0.8 µM)",119,136,129,124,175,88.3,46.3,89.8,150,71.5,108,111,185,225
"O=C(Nc1cc(C(F)(F)F)cc(C(F)(F)F)c1)c1cc(Cl)ccc1O + CN1CCN(c2ccc3nc(-c4c(N)c5c(F)cccc5[nH]c4=O)[nH]c3c2)CC1 [Dovitinib] (first compound 0.016 µM, partner dose 0.1 µM)",52.7,20.1,30.1,130,39.3,91.5,38.1,56.3,105,44.2,99.4,39.8,93.4,42.1
"CC[C@]1(O)C[C@H]2CN(CCc3c([nH]c4ccccc34)[C@@](C(=O)OC)(c3cc4c(cc3OC)N(C=O)[C@H]3[C@@](O)(C(=O)OC)[C@H](OC(C)=O)[C@]5(CC)C=CCN6CC[C@]43[C@@H]65)C2)C1 [vincristine] + CS(=O)(=O)CCNCc1ccc(-c2ccc3ncnc(Nc4ccc(OCc5cccc(F)c5)c(Cl)c4)c3c2)o1 [lapatinib] (first compound 0.0001 µM, partner dose 0.8 µM)",158,583,283,123,633,422,263,1170,1750,153,113,440,384,52.6
"Cc1ccc(Nc2nccc(N(C)c3ccc4c(C)n(C)nc4c3)n2)cc1S(N)(=O)=O [Pazopanib] + NC1(c2ccc(-c3nc4ccn5c(=O)[nH]nc5c4cc3-c3ccccc3)cc2)CCC1 [MK2206] (first compound 0.4 µM, partner dose 0.4 µM)",80,31.9,142,96.1,164,73.8,70.5,145,86.1,46.3,98.4,146,81.8,60
"Cc1ccc(Nc2nccc(N(C)c3ccc4c(C)n(C)nc4c3)n2)cc1S(N)(=O)=O [Pazopanib] + CCN(CC)CCNC(=O)c1c(C)[nH]c(/C=C2\C(=O)Nc3ccc(F)cc32)c1C [sunitinib] (first compound 0.4 µM, partner dose 0.4 µM)",140,90.1,90,22.9,74.2,71.6,22.4,38.9,112,55.2,92.8,95,92.4,275
"O=C(/C=C/c1cccnc1)NCCCCC1CCN(C(=O)c2ccccc2)CC1 + CC(=O)c1c(C)c2cnc(Nc3ccc(N4CCNCC4)cn3)nc2n(C2CCCC2)c1=O [palbociclib] (first compound 0.01 µM, partner dose 0.04 µM)",779,86.6,239,39.5,166,594,238,117,158,55.4,112,52.9,130,73.3
"N#CC[C@H](C1CCCC1)n1cc(-c2ncnc3[nH]ccc23)cn1 [ruxolitinib] + Clc1ccc(Nc2nnc(Cc3ccncc3)c3ccccc23)cc1 [vatalanib] (first compound 1 µM, partner dose 2 µM)",101,175,49.5,29.1,166,101,58.6,109,157,37.3,106,17.5,95.8,51.9
"Cc1cn(-c2cc(NC(=O)c3ccc(C)c(Nc4nccc(-c5cccnc5)n4)c3)cc(C(F)(F)F)c2)cn1 [nilotinib] + NC1(c2ccc(-c3nc4ccn5c(=O)[nH]nc5c4cc3-c3ccccc3)cc2)CCC1 [MK2206] (first compound 0.2 µM, partner dose 0.4 µM)",78.1,49.5,51.3,202,252,103,455,203,161,173,101,25.9,97.3,43.4
"Cc1cc(Nc2cc(N3CCN(C)CC3)nc(Sc3ccc(NC(=O)C4CC4)cc3)n2)n[nH]1 [Tozasertib] + C[C@]1(c2nc3c(C(N)=O)cccc3[nH]2)CCCN1 [Veliparib] (first compound 0.006 µM, partner dose 1.4 µM)",166,87.3,118,37.3,313,141,233,87,112,44.4,117,20.8,137,77.3
"CC[C@]1(O)C[C@H]2CN(CCc3c([nH]c4ccccc34)[C@@](C(=O)OC)(c3cc4c(cc3OC)N(C=O)[C@H]3[C@@](O)(C(=O)OC)[C@H](OC(C)=O)[C@]5(CC)C=CCN6CC[C@]43[C@@H]65)C2)C1 [vincristine] + NC1(c2ccc(-c3nc4ccn5c(=O)[nH]nc5c4cc3-c3ccccc3)cc2)CCC1 [MK2206] (first compound 0.0001 µM, partner dose 0.4 µM)",115,156,113,133,160,92.9,516,366,1120,118,111,98.9,204,89.6
"O=C(/C=C/c1cccnc1)NCCCCC1CCN(C(=O)c2ccccc2)CC1 + Nc1ncn([C@H]2C[C@H](O)[C@@H](CO)O2)c(=O)n1 [decitabine] (first compound 0.01 µM, partner dose 0.1 µM)",1060,77.9,108,75.5,84,930,76.3,180,107,117,184,143,112,95.2
"O=c1[nH]nc(Sc2ncc([N+](=O)[O-])s2)n1-c1ccc2c(c1)OCCO2 + Nc1ccn([C@@H]2O[C@H](CO)[C@@H](O)C2(F)F)c(=O)n1 [gemcitabine] (first compound 0.2 µM, partner dose 0.0004 µM)",118,89,46.7,109,97.1,71.2,192,260,186,107,125,263,108,200
"Cc1cc(Nc2cc(N3CCN(C)CC3)nc(Sc3ccc(NC(=O)C4CC4)cc3)n2)n[nH]1 [Tozasertib] + Cc1nc(Nc2ncc(C(=O)Nc3c(C)cccc3Cl)s2)cc(N2CCN(CCO)CC2)n1 [dasatanib] (first compound 0.006 µM, partner dose 0.004 µM)",86,43.3,122,304,97.4,84.1,63.3,122,107,44.4,165,54.2,118,136
"CCCCCCCCCCCCCCCCCCOP(=O)([O-])OC1CC[N+](C)(C)CC1 [Perifosine] + C[C@]1(O)C[C@@H](c2nc(-c3ccc4ccc(-c5ccccc5)nc4c3)c3c(N)nccn32)C1 [OSI906] (first compound 0.4 µM, partner dose 0.4 µM)",151,122,333,318,119,284,65.4,215,122,80,865,51.9,85.2,97.6
"CC[C@]1(O)C[C@H]2CN(CCc3c([nH]c4ccccc34)[C@@](C(=O)OC)(c3cc4c(cc3OC)N(C=O)[C@H]3[C@@](O)(C(=O)OC)[C@H](OC(C)=O)[C@]5(CC)C=CCN6CC[C@]43[C@@H]65)C2)C1 [vincristine] + OCc1c[nH]c2ccccc12 [Indole-3-carbinol] (first compound 0.0001 µM, partner dose 0.8 µM)",59.7,239,208,127,130,103,277,119,1210,116,119,109,206,81.9
"N#CC[C@H](C1CCCC1)n1cc(-c2ncnc3[nH]ccc23)cn1 [ruxolitinib] + Cc1nc(Nc2ncc(C(=O)Nc3c(C)cccc3Cl)s2)cc(N2CCN(CCO)CC2)n1 [dasatanib] (first compound 1 µM, partner dose 0.004 µM)",160,88.6,131,191,84.7,85.5,79.8,287,234,77.4,144,86.9,92.6,100
"COc1cc([C@@H]2c3cc4c(cc3[C@@H](O[C@@H]3O[C@@H]5CO[C@@H](C)O[C@H]5[C@H](O)[C@H]3O)[C@H]3COC(=O)[C@H]23)OCO4)cc(OC)c1O [etoposide] + Nc1nc(F)nc2c1ncn2[C@@H]1O[C@H](CO)[C@@H](O)[C@@H]1O [fludarabine] (first compound 0.02 µM, partner dose 0.2 µM)",98.3,398,38,271,179,369,944,122,185,58.3,109,1260,87.9,98.6
"Cc1ccc(Nc2nccc(N(C)c3ccc4c(C)n(C)nc4c3)n2)cc1S(N)(=O)=O [Pazopanib] + Nc1nc(F)nc2c1ncn2[C@@H]1O[C@H](CO)[C@@H](O)[C@@H]1O [fludarabine] (first compound 0.4 µM, partner dose 0.2 µM)",57,300,44.7,111,53.1,217,545,60,183,404,120,105,123,43.3

# Quoted at random: two entries already listed, in no set order.
SMILES,cleaved PARP positive nuclei fraction (MZ2-MEL) [%],cleaved PARP positive nuclei fraction (MeWo) [%],cleaved PARP positive nuclei fraction (RPMI7951) [%],cleaved PARP positive nuclei fraction (RVH-421) [%],cleaved PARP positive nuclei fraction (SkMel28) [%],cleaved PARP positive nuclei fraction (SkMel2) [%],cleaved PARP positive nuclei fraction (SkMel30) [%],cleaved PARP positive nuclei fraction (UACC62) [%],cleaved PARP positive nuclei fraction (WM115) [%],cleaved PARP positive nuclei fraction (WM1716) [%],cleaved PARP positive nuclei fraction (WM1745) [%],cleaved PARP positive nuclei fraction (WM3526) [%],cleaved PARP positive nuclei fraction (WM3619) [%],cleaved PARP positive nuclei fraction (WM451Lu) [%]
"Cc1ccc(Nc2nccc(N(C)c3ccc4c(C)n(C)nc4c3)n2)cc1S(N)(=O)=O [Pazopanib] + Nc1nc(F)nc2c1ncn2[C@@H]1O[C@H](CO)[C@@H](O)[C@@H]1O [fludarabine] (first compound 0.4 µM, partner dose 0.2 µM)",57,300,44.7,111,53.1,217,545,60,183,404,120,105,123,43.3
"Cc1cn(-c2cc(NC(=O)c3ccc(C)c(Nc4nccc(-c5cccnc5)n4)c3)cc(C(F)(F)F)c2)cn1 [nilotinib] + NC1(c2ccc(-c3nc4ccn5c(=O)[nH]nc5c4cc3-c3ccccc3)cc2)CCC1 [MK2206] (first compound 0.2 µM, partner dose 0.4 µM)",78.1,49.5,51.3,202,252,103,455,203,161,173,101,25.9,97.3,43.4
